{"source": "patent US11066439", "about": "(dated 2021)", "test": "general procedure: Fmoc solid-phase peptide synthesis; Wang resin; DIC / oxymapure / DIPEA with inorganic salt (MgCl2)", "details": "whole synthesis", "data": [{"substance": "H-His^7-Ala^8-Glu^9-Gly^10-Thr^11-Phe^12-Thr^13-Ser^14-Asp^15-Val^16-Ser^17-Ser^18-Tyr^19-Leu^20-Glu^21-Gly^22-Glu^23-Ala^24-Ala^25-Lys(γ-Glu-palmitoyl)^26-Glu^27-Phe^28-Ile^29-Ala^30-Trp^31-Leu^32-Val^33-Arg^34-Gly^35-Arg^36-Gly^37-OH", "values": [{"measurement": "crude purity (method not given)", "setting": "run 1", "value": 51.3, "unit": "%"}, {"measurement": "crude yield", "setting": "run 1", "value": 18.25, "unit": "%"}, {"measurement": "crude purity (method not given)", "setting": "run 2", "value": 51.16, "unit": "%"}, {"measurement": "crude yield", "setting": "run 2", "value": 17.84, "unit": "%"}, {"measurement": "crude purity (method not given)", "setting": "run 3", "value": 51.7, "unit": "%"}, {"measurement": "crude yield", "setting": "run 3", "value": 21.23, "unit": "%"}, {"measurement": "crude purity (method not given)", "setting": "run 4", "value": 34.4, "unit": "%"}, {"measurement": "crude yield", "setting": "run 4", "value": 6.79, "unit": "%"}, {"measurement": "crude purity (method not given)", "setting": "run 5", "value": 39.1, "unit": "%"}, {"measurement": "crude yield", "setting": "run 5", "value": 8.62, "unit": "%"}, {"measurement": "crude purity (method not given)", "setting": "run 6", "value": ">60.0", "unit": "%"}, {"measurement": "crude yield", "setting": "run 6", "value": 27.0, "unit": "%"}]}]}
